Experimental findings from publication PMC1978536, “MVB-12, a Fourth Subunit of Metazoan ESCRT-I, Functions in Receptor Downregulation” (PLoS ONE, 2007) are described below.

Chains of the proteins cited; added tags and fusions are not shown.
UniProt Q99816: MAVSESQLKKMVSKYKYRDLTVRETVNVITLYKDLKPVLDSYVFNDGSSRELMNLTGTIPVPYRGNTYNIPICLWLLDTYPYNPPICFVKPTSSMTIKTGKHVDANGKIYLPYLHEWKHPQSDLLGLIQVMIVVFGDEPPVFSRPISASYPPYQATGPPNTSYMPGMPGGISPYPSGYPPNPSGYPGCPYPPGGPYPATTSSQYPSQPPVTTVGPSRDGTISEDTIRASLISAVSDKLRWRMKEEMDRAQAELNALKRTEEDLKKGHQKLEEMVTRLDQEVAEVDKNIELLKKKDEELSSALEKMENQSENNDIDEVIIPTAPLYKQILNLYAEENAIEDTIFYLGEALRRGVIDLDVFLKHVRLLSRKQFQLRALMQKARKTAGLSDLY

The experiment deals with T1, GFP:MVB12B (human) (UniProt Q9H7P6).
T1 sequence: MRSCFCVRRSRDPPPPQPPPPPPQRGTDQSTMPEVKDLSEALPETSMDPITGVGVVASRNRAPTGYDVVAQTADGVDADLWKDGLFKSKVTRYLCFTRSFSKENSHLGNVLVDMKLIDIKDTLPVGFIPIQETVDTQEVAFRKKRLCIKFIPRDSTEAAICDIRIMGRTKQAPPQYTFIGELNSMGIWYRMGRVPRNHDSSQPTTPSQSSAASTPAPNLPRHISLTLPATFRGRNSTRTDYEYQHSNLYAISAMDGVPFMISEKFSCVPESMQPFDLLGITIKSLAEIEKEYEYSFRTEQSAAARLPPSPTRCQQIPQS
Description: co-IP; extracts of HeLa cells transfected with GFP:MVB12A or GFP:MVB12B; immunoprecipitation with antibodies to GFP (GST antibodies as control); blot probed for TSG101.

These are yes or no findings as the source states them, for the method shown. Binding seen in cells or lysates may run through a third protein. Some results given as binding are weak or reduced against the parent protein; the word gives no strength. Sequences can lack the tags named with a protein.

As for “human TSG101 (endogenous) (from UniProt Q99816 1-390)”, the binding result is reported as “binds”.
